Measurements published in patent US6858705 (dated 2005).

Experiment: general procedure: Fmoc solid-phase peptide synthesis; 2-chlorotrityl chloride resin
Details: analytical reverse phase HPLC, electrospray mass spectrometry for identity

Substance	crude purity (method not given) (whole synthesis)	purity (crude or final not stated) (conjugation step)
BOC-Lys(BOC)-Lys-D-Tyr(O-tBu)-D-Lys-OH	˜90% pure	
Lys-Asp-D-Tyr-D-Lys((1-(p-CSNH)benzyl) DTPA)-OH		˜90% pure
